According to the supplement of paper PMC3334620:
The full ranking holds about 33,000 sequences; the median of “E-score (-0.5 to 0.5)” is about -8e-05, and the highest 2% start at about 0.23. The list shows a part of the results.

target: T1, Nrg2 (UniProt P38082); experiment: PBM E-score (8-mer binding enrichment) (E-score (-0.5 to 0.5)); higher = stronger / more preferred TF binding; conditions: protein concentration: 100 nM; construct: GST-full length
T1 sequence: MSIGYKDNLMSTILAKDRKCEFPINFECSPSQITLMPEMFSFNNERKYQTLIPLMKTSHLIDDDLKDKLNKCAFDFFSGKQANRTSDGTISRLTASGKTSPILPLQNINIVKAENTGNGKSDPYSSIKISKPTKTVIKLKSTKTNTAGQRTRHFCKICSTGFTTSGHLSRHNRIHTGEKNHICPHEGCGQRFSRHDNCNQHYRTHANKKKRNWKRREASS
Method in brief: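 Yeast transcription factors carrying a GST tag, as full-length proteins or DNA-binding domains, were produced by PURExpress in vitro transcription/translation. About 100-200 nM protein was applied to universal all-10-mer Agilent arrays, double-stranded by primer extension on fresh or once-stripped slides. Bound protein was detected with fluorescent anti-GST, and scans were normalised with masliner. The Universal PBM Analysis Suite gave each ungapped eight-base word, pooled with its reverse complement, an E-score, a modified Wilcoxon-Mann-Whitney statistic.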

Sequence	PBM E-score
ACGGCAAC	0.0905
CCCGAGCG	-0.0411
AAGAACCT	0.0278
CTATGTCA	-0.0385
ACTATTGG	-0.144
CCTAATGA	-0.00353
CGTTGAGA	-0.0119
ACAACTTG	0.129
AGGCTTTC	-0.0102
ACCCTTGC	0.268
ACACCACA	0.103
CTAACGTA	0.0221
GGTATCTA	0.00237
GTAATTAA	0.0301
AGAGTGAC	-0.229
TCATATGA	0.21
ACGCTCTC	-0.0676
GGAAACGA	0.0585
AAGCAGCC	-0.116
AGAATTAA	-0.0858
TCCGCCGA	0.102
AACCGGTT	0.0107
AATGCCAT	0.0483
CAGGTCAG	0.123
GCAGGTCA	0.0617

Sequence	PBM E-score
AACCGGGT	0.00463
ACACAGAA	0.184
CCGGGCCG	-0.181
TATCCAGA	0.00794
AACAGAAC	0.0721
TAGAAGGA	-0.244
AGGCTCTG	-0.178
CACCTTAC	-0.098
ATAGCGTG	0.111
ATTGATTC	0.244
ACACATGA	0.0556
ACCGTCTG	-0.249
AGGATAGC	0.00991
AAATGGTG	-0.00957
TCAACTGA	0.124
CCCCGGCA	-0.125
AGGCATAG	0.0209
CATTACAG	0.0344
TCGTAGAA	-0.0839
ATAGGTGC	0.0698
CGAGATAA	0.226
CGGGTTAA	0.0877
CGCCATCA	-0.155
GGGGTGTA	-0.121
CATGACGG	0.125

Sequence	PBM E-score
AGCACCTA	-0.201
AACGCACC	-0.0612
ACTGTATC	-0.0153
ATACAGTC	-0.227
ATCTTCGC	0.194
GGAAATAA	0.214
AAAAGGGG	-0.0401
ATGGAATG	-0.0148
CGGTCCCA	-0.17
CCGGCGAA	0.0927
AGTAAGTA	0.154
ACCCTGTC	0.201
AATCCGGG	0.0178
CGTCACGA	-0.0766
CTCTCCCC	-0.223
AGGCACTC	-0.127
GCTTTTCA	-0.0478
CGGCTACA	-0.178
AATAGATA	0.22
AATGTTGT	-0.029
CTCGCGAG	0.257
GTCACGTA	-0.249
CCGCTGCG	-0.14
ACTGGTTC	0.0894
ACTATTAT	0.105

Sequence	PBM E-score
GGAGCCAC	-0.246
ATCGAGCA	0.0824
ATGGTCTC	-0.0514
CAAATGGG	0.0248
CCAACCAG	-0.0699
ATACGTAA	-0.0423
CGCAGGCA	-0.0766
CACGCCGA	0.0413
CTCTCTAC	0.119
ATGGGTGA	0.00137
CCGACACG	-0.0707
GTTCCACA	-0.101
CGGTCGCA	-0.018
GGGCACCA	-0.139
AAAAAATA	0.0567
CGGCGAAG	-0.0143
GTATTGAA	0.153
TATACCAA	0.13
AGTTCTCA	0.155
TCTGGCAA	-0.101
GCTATCAA	0.147
TGTCTCAA	-0.0475
GTCTACCA	-0.147
AACAAATC	0.0564
CGCGCGTA	0.133

Sequence	PBM E-score
AGGTTATG	0.0604
GATCTGGA	0.0104
AGCTCGAT	0.156
GAAGCTAA	-0.00529
CTGTAAAA	-0.00171
GCTACTCC	-0.0599
ACAGTATA	0.0828
GGACGTCA	0.00109
GGCATCTA	0.111
ACAAACTA	0.0968
ATTCTTAG	-0.0242
ACACCCTG	0.223
CCCCCGTC	-0.42
AATTCTCG	-0.0395
GGCATGAA	0.0895
AATGTAAT	0.139
AGAACGCC	-0.018
CCGCGTCC	-0.0349
AATGCAAA	0.244
GATTAACC	-0.222
ACCCCTCC	-0.248
AAGCCACT	-0.0519
CTAGCAAA	0.0319
AAGGAGAT	-0.0709
ACGAGACT	-0.139

Sequence	PBM E-score
CATTCGAC	0.049
CCGCAGGC	-0.0603
ACCCTACA	0.0936
AATTGGGC	-0.0483
CCTAGTGC	-0.0328
AAGCAGAA	0.117
GAAAGCTA	0.0593
GATTTTCA	-0.0417
AGGGGTAG	-0.0372
AGACAGTA	0.0173
AACGTCTG	0.0137
AATATCAT	0.0977
TCCACAAA	-0.0625
ACTCAACT	0.179
AATCCTAA	-0.0818
ACGATTTA	0.208
GGAATCCA	0.00282
GGTAACGA	-0.00769
ACGTATGA	0.0475
CTACGGCC	-0.0805
TGAATGCA	0.0182
CGTTCCCC	-0.0326
CCGGAATC	0.0538
CGGGGCAC	-0.111
CACCCACA	0.1

Sequence	PBM E-score
CCACGGGA	-0.00794
GATTATCC	0.043
TAGACCCA	0.0353
AGGTACAC	-0.073
AGGAAGGG	-0.192
AAAAAAAA	0.142
ACTGTAGC	-0.18
AATCTTGG	0.0117
CGGCCGTA	0.00647
CTCTAGCA	-0.216
CCGCCAGG	-0.204
CAGTGAGC	-0.0602
TCCTCCCA	-0.143
ATGGTACA	0.0537
AGGGGTTG	0.216
GAAGAAGC	-0.136
TGCGACAA	0.0655
ACCCGAAC	-0.0389
CGCCCCCA	-0.194
AACGCGGA	0.0806
GCCGGGGA	-0.0136
GGAGCCAA	-0.0987
